Measured values reported in patent US20180368404A1, “3-PYRIDYL HETEROBICYCLIC COMPOUND FOR CONTROLLING INVERTEBRATE PESTS” (BASF SE, priority 2014, published 2018).
Some results were stated once for a whole list of compounds, not compound by compound.

What was measured:
Format in all cases: in vivo
[1] = tested on: Green Peach Aphid (Myzus persicae); assay: Green peach aphid spray test on infested bell pepper plants; conditions: 300 ppm, after 5 days
Protocol: (§1) The active compounds were formulated in cyclohexanone as a 10,000 ppm solution supplied in 1.3 ml ABgene® tubes. These tubes were inserted into an automated electrostatic sprayer equipped with an atomizing nozzle and they served as stock solutions for which lower dilutions were made in 1:1 (vol:vol) water: acetone. A nonionic surfactant (Kinetic®) was included in the solution at a volume of 0.01% (v/v).
Bell pepper plants at the first true-leaf stage were infested prior to treatment by placing heavily infested leaves from the main colony on top of the treatment plants. Aphids were allowed to transfer overnight to accomplish an infestation of 30-50 aphids per plant and the host leaves were removed. The infested plants were then sprayed by an automated electrostatic plant sprayer equipped with an atomizing spray nozzle. The plants were dried in the sprayer fume hood, removed, and then maintained in a growth room under fluorescent lighting in a 24 hour photoperiod at 25° C. and 20-40% relative humidity. Aphid mortality on the treated plants, relative to mortality on untreated control plants, was determined after 5 days.

[2] = tested on: Vetch Aphid (Megoura viciae); assay: Vetch aphid bean leaf disk microtiter test; conditions: 800 ppm; leaf disks sprayed with 2.5 μl; 6 days
Protocol: The active compounds were formulated in 3:1 (vol:vol) water: DMSO with different concentrations of formulated compounds.
Bean leaf disks were placed into microtiterplates filled with 0.8% agar-agar and 2.5 ppm OPUS™. The leaf disks were sprayed with 2.5 μl of the test solution and 5 to 8 adult aphids were placed into the microtiter plates which were then closed and kept at 23±1° C. and 50±5% relative humidity under fluorescent light for 6 days. Mortality was assessed on the basis of vital, reproduced aphids. Aphid mortality and fecundity was then visually assessed.

[3] = tested on: Silverleaf Whitefly (Bemisia argentifolii, Adult); assay: Silverleaf whitefly test on sprayed cotton plants; conditions: 300 ppm; 3 days after treatment
Protocol: as §1
Cotton plants at the cotyledon stage (one plant per pot) were sprayed by an automated electrostatic plant sprayer equipped with an atomizing spray nozzle. The plants were dried in the sprayer fume hood and then removed from the sprayer. Each pot was placed into a plastic cup and 10 to 12 whitefly adults (approximately 3-5 days […]) were introduced. The insects were collected using an aspirator and 0.6 cm, nontoxic Tygon® tubing (R-3603) connected to a barrier pipette tip. The tip, containing the collected insects, was then gently inserted into the soil containing the treated plant, allowing insects to crawl out of the tip to reach the foliage for feeding. Cups were covered with a reusable screened lid (150-micron mesh polyester screen PeCap from Tetko, Inc.). Test plants were maintained in a growth room at 25° C. and 20-40% relative humidity for 3 days, avoiding direct exposure to fluorescent light (24 hour photoperiod) to prevent trapping of heat inside the cup. Mortality was assessed 3 days after treatment, compared to untreated control plants.

[4] = tested on: Cotton Aphid (Aphis gossypii, Mixed Life Stages); assay: Cotton aphid spray test on infested cotton plants; conditions: 300 ppm, after 5 days
Protocol: as §1
Cotton plants at the cotyledon stage were infested with aphids prior to treatment by placing a heavily infested leaf from the main aphid colony on top of each cotyledon. Aphids were allowed to transfer overnight to accomplish an infestation of 80-100 aphids per plant and the host leaf was removed. The infested plants were then sprayed by an automated electrostatic plant sprayer equipped with an atomizing spray nozzle. The plants were dried in the sprayer fume hood, removed from the sprayer, and then maintained in a growth room under fluorescent lighting in a 24-hr photoperiod at 25° C. and 20-40% relative humidity. Aphid mortality on the treated plants, relative to mortality on untreated control plants, was determined after 5 days.

Row | SMILES | mortality in comparison with untreated controls [1] | mortality in comparison with untreated controls [2] | mortality in comparison with untreated controls [3] | mortality in comparison with untreated controls [4]
1 | CC(C)Oc1ccc2nn(-c3cccnc3)cc2n1 [I-D38] | at least 75% | at least 75% | at least 75% | at least 75%
2 | CSCCOc1ccc2nc(-c3cccnc3)sc2n1 [I-H3] | at least 75% | at least 75% |  | 
3 | FC(F)C(F)(F)COc1ccc2nc(-c3cccnc3)cn2n1 [I-E28] |  | at least 75% |  | 
4 | N#CC1(COc2ccc3nn(-c4cccnc4)cc3n2)CC1 [I-D33] |  | at least 75% |  | 
5 | CCOc1ccc2nc(-c3cccnc3)sc2n1 [I-H2] | at least 75% | at least 75% | at least 75% | at least 75%
6 | c1cncc(-c2cn3nc(OCc4cccs4)ccc3n2)c1 [I-E6] |  |  | at least 75% | 
7 | OCCOc1ccc2nc(-c3cccnc3)cn2n1 [I-E29] | at least 75% | at least 75% |  | 
8 | c1cncc(-c2cn3nc(OCC4CC4)ccc3n2)c1 [I-E7] | at least 75% | at least 75% |  | at least 75%
9 | C[Si](C)(C)CCOc1ccc2nn(-c3cccnc3)cc2n1 [I-D29] |  | at least 75% |  | 
10 | CC(C)CCSc1ccc2nn(-c3cccnc3)cc2n1 [I-D28] |  | at least 75% |  | 
11 | FC(F)(F)C1(COc2ccc3nc(-c4cccnc4)cn3n2)CC1 [I-E27] |  | at least 75% |  | 
12 | CC(C)COc1ccc2nc(-c3cccnc3)cn2n1 [I-E22] | at least 75% | at least 75% | at least 75% | at least 75%
13 | c1cncc(-c2cn3nc(OCc4cnccn4)ccc3n2)c1 [I-E38] | at least 75% |  |  | 
14 | CC(C)(C)c1ccc(CSc2ccc3nn(-c4cccnc4)cc3n2)cc1 [I-D32] |  | at least 75% |  | 
15 | CS(=O)(=O)NC(=O)COc1ccc2nc(-c3cccnc3)cn2n1 [I-E9] |  |  | at least 75% | 
16 | c1cncc(-n2cc3nc(OCC4CC4)ccc3n2)c1 [I-D7] | at least 75% | at least 75% | at least 75% | at least 75%
17 | CC(C)Oc1ccc2nc(-c3cccnc3)sc2n1 [I-H1] | at least 75% | at least 75% | at least 75% | at least 75%
18 | c1cncc(-c2cn3nc(OCC4CCCO4)ccc3n2)c1 (stereo not drawn) [I-E36] | at least 75% |  | at least 75% | at least 75%
19 | C=CCSc1ccc2nn(-c3cccnc3)cc2n1 [I-D10] |  | at least 75% | at least 75% | 
20 | c1cncc(-n2cc3nc(OCc4cccs4)ccc3n2)c1 [I-D35] |  | at least 75% |  | 
21 | COc1cccc2nn(-c3cccnc3)cc12 [I-C2] |  | at least 75% | at least 75% | 
22 | CSCCOc1ccc2nc(-c3cccnc3)cn2n1 [I-E3] | at least 75% | at least 75% | at least 75% | at least 75%
23 | c1cncc(-n2cc3nc(OCC4CCCO4)ccc3n2)c1 (stereo not drawn) [I-D67] |  | at least 75% |  | 

Row | SMILES | mortality in comparison with untreated controls [1] | mortality in comparison with untreated controls [2] | mortality in comparison with untreated controls [3] | mortality in comparison with untreated controls [4]
24 | c1cnc(Sc2ccc3nc(-c4cccnc4)cn3n2)nc1 [I-E25] |  |  | at least 75% | 
25 | FC(F)(F)C1(COc2ccc3nn(-c4cccnc4)cc3n2)CC1 [I-D34] |  | at least 75% |  | 
26 | CCCCCSc1ccc2nn(-c3cccnc3)cc2n1 [I-D61] |  | at least 75% |  | 
27 | FCCOc1ccc2nc(-c3cccnc3)cn2n1 [I-E41] |  | at least 75% |  | 
28 | CSc1ccc2nn(-c3cccnc3)cc2n1 [I-D20] | at least 75% | at least 75% | at least 75% | at least 75%
29 | CSCC(C)COc1ccc2nn(-c3cccnc3)cc2n1 (stereo not drawn) [I-D66] |  | at least 75% |  | 
30 | CC(COc1ccc2nn(-c3cccnc3)cc2n1)C[S+](C)[O-] (stereo not drawn) [I-D68] |  | at least 75% |  | 
31 | CSCCCOc1ccc2nn(-c3cccnc3)cc2n1 [I-D60] |  | at least 75% |  | 
32 | C=CCCOc1ccc2nc(-c3cccnc3)cn2n1 [I-E4] | at least 75% |  | at least 75% | at least 75%
33 | COC(C)COc1ccc2nc(-c3cccnc3)cn2n1 (stereo not drawn) [I-E2] | at least 75% | at least 75% | at least 75% | at least 75%
34 | FC(F)(F)CSc1ccc2nn(-c3cccnc3)cc2n1 [I-D12] | at least 75% | at least 75% | at least 75% | at least 75%
35 | CC(C)S(=O)(=O)c1ccc2nn(-c3cccnc3)cc2n1 [I-D63] |  | at least 75% | at least 75% | 
36 | CSCCOc1ccc2nn(-c3cccnc3)cc2n1 [I-D2] | at least 75% | at least 75% | at least 75% | at least 75%
37 | FC(F)(F)CCSCCCOc1ccc2nn(-c3cccnc3)cc2n1 [I-D36] |  | at least 75% |  | 
38 | [O-][S+](CC(F)(F)F)c1ccc2nn(-c3cccnc3)cc2n1 (stereo not drawn) [I-D64] |  | at least 75% | at least 75% | 
39 | CCC(C)Oc1ccc2nn(-c3cccnc3)cc2n1 (racemic) [I-D18] | at least 75% | at least 75% | at least 75% | at least 75%
40 | CC(C)[S+]([O-])c1ccc2nn(-c3cccnc3)cc2n1 (racemic) [I-D21] | at least 75% | at least 75% | at least 75% | 
41 | c1cncc(-c2cn3nc(OC4CCCC4)ccc3n2)c1 [I-E21] | at least 75% |  | at least 75% | at least 75%
42 | CCCOc1ccc2nc(-c3cccnc3)cn2n1 [I-E35] | at least 75% | at least 75% | at least 75% | 
43 | CC(C)SCCOc1ccc2nn(-c3cccnc3)cc2n1 [I-D27] |  | at least 75% |  | 
44 | CCOC(=O)C(C)Sc1ccc2nc(-c3cccnc3)cn2n1 (stereo not drawn) [I-E19] | at least 75% |  |  | 
45 | N#CC1(COc2ccc3nc(-c4cccnc4)cn3n2)CC1 [I-E40] |  | at least 75% |  | 
